## Library screen at single concentrations

Measurements from “University of Dundee, Small-Polar-MMV Screening Library” (2021), ChEMBL document CHEMBL3988442.

A: 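Whole-parasite assay of Trypanosoma brucei over 72 hours; the read-out is not stated. Tested at 30 µM. The record gives no direction; compounds that gave an IC50 in retests scored well above the rest, so higher reads as stronger inhibition. Values scatter widely below zero; nearly all retest evidence comes from the higher of the two concentrations used. Size under these conditions: about 64,000 compounds, about 940 of them at 50% or above in at least one test.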
B: 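Assay of Toxoplasma gondii numbers, read through their beta-galactosidase reporter with a colour substrate. Tested at 10 µM. The record gives no direction; the compounds picked for IC50 retests had high values, so higher reads as fewer parasites. Size under these conditions: about 67,000 compounds, about 260 of them at 50% or above in at least one test.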

Values are the deposited “Percent Effect”, in %. How 0% and 100% were set is not recorded. Most values in the screen are low, and negative values occur. The compounds are a random part of those screened.

structure: CCN(CCCNCc1c(C)nn(C)c1N(C)C)S(C)(=O)=O
A: 1.393%
B: -22.3%

structure: Cc1cccc(CN2CCC(c3nccn3CC(N)=O)CC2)n1
A: -28.11%
B: 4.054%

structure: CC(NC(=O)NCCOc1ccc(F)c(F)c1)c1nncn1C (centres undefined)
A: -10.06%
B: 2.658%

structure: COc1ccccc1CN1CCc2c(nc(-c3ccccn3)[nH]c2=O)C1
A: 100.6%
B: 7.078%

structure: CCS(=O)(=O)NCc1cc(Br)c(OC)c(OC)c1
A: 4.804%
B: -10.81%

structure: CCc1nc(CN2CCN(C(C)c3nc(C4CC4)no3)CC2)no1 (centres undefined)
B: -1.102%

structure: NCCc1c(-c2ccccc2)[nH][nH]c1=O.O=C(O)C(=O)O
B: 4.35%

structure: O=C(N[C@@H]1CCC[C@@H](N2CCOCC2)[C@@H]1O)c1cc2ccccc2[nH]1
A: -34.53%
B: -60.63%

structure: COc1ccc(C(=O)N2CC(=O)N(C3CCC3)CC(O)C2)c(OC)c1 (centres undefined)
A: -31.7%
B: 16.36%

structure: COc1ncc(C)cc1NC(=O)COc1ccccc1F
A: -37.25%
B: 4.425%

structure: CCC(C)N1CCC(Oc2ccc(C(=O)NCCN(C)C)cc2Cl)CC1 (centres undefined)
A: 25.7%
B: 0.2899%

structure: Cc1nn(C)cc1CN(C)C(=O)c1ccccn1
B: 13.37%

structure: CN(C)C(=O)CN1CCC2(CCCN(Cc3cccs3)C2)C1=O.O=C(O)C(F)(F)F (centres undefined)
A: -26.66%
B: -4.351%

structure: Cc1ccc(OC2(C(=O)O)CCN(C(=O)c3ccccc3F)CC2)cn1
A: -25.6%
B: -9.97%

structure: Cc1nccn1-c1cc(CNC(=O)CCS(=O)(=O)C2CCCC2)ccn1
A: -11.95%
B: -11.52%

structure: CCn1cc(CN(C)C(=O)c2cccc(CCC(C)(C)O)c2)cn1
A: -9.37%
B: -1.982%

structure: COCCN1CCN(c2nc(C3CCCC3)nc3c2cnn3C)CC1
A: -24.7%
B: -4.039%

structure: CC(C)C1CCCN1CC(=O)NCc1ccc(OCC(N)=O)cc1 (centres undefined)
A: -11.19%
B: 2.621%

structure: O=C(O)C(F)(F)F.O=C(O)C(F)(F)F.O=C1CC[C@]2(CC[C@@H](NC3CCOC3)CC2)N1Cc1ccncc1 (some centres undefined)
A: -10.77%
B: -5.964%

structure: CCN(C)C(=O)c1ccc(N(C)Cc2cc(-c3ccncc3)no2)nc1
A: -21.45%

structure: CC(C)(CO)CCCNC(=O)NC1(C)Cc2ccccc2C1
A: -15.49%
B: 1.749%

structure: Cn1cc(CN2CCCC3(CCN(Cc4ccncc4)C3=O)C2)cn1 (centres undefined)
A: -3.757%
B: 3.899%

structure: Cc1ccc(C)c(C(NC(=O)C2CC2)c2cccnc2)c1 (centres undefined)
A: -1.742%
B: -5.322%

structure: Cc1c(S(=O)(=O)N(CCc2ccccc2)Cc2ccn(C)n2)cnn1C
A: -14.87%
B: -1.01%

structure: CC(C)OCCC(=O)N(C)c1ccc(F)c(Cl)c1
A: -21.93%
B: -4.906%

structure: CC1(C)CN(C(=O)NCCc2ccn(-c3ccccc3)n2)CCO1
A: -25.69%
B: -22.5%

structure: Cc1cc2c(cc1Cl)C=CC1(CCN(CC(=O)N3CCOCC3)CC1)O2
A: -3.407%
B: 9.339%

structure: CC(=O)N1CCN(C(=O)c2ccc(-c3cccc(C)c3)[nH]c2=O)CC1
A: -8.474%
B: -32.47%

structure: COC1CCN(c2ccc(NC(=O)Cn3cccn3)cc2)CC1
A: -4.873%
B: -4.969%

structure: OCCOCCNCC1(c2ccc(F)cc2)CCOC1 (centres undefined)
A: -1.546%
B: 20.19%

structure: CCCN1CCC(c2cc(CCOc3ccc(C(F)(F)F)cc3)[nH]n2)C1 (centres undefined)
A: 85.59%
B: -4.74%

structure: FC(F)(F)COCCN1CCOC(Cn2cccn2)C1 (centres undefined)
A: -20.17%
B: -3.69%

structure: Cc1nc(-c2ccccc2)sc1CSCCS(C)(=O)=O
A: -16.4%
B: -5.514%

structure: Cc1ncsc1CN1Cc2cnn(C)c2C(COCC2CC2)C1.O=C(O)C(F)(F)F.O=C(O)C(F)(F)F (centres undefined)
A: -47.09%
B: -4.853%

structure: C[C@@H]1CN(C(=O)C2CCS(=O)(=O)CC2)C[C@@]1(O)C1CC1
A: -25.29%
B: -3.016%

structure: Cc1nc(CNCC2Cn3nncc3CO2)cs1.O=C(O)C(F)(F)F (centres undefined)
A: -87.14%
B: 10.42%

structure: COc1ncc(C2CC(=O)NCc3nc4ccccn4c32)cn1 (centres undefined)
A: 28.58%
B: -1.654%

structure: O=C(O)Cc1cn2cc(C(F)(F)F)ccc2n1
B: 12.75%

structure: CCN(Cc1ccoc1)C(=O)c1ccc(C)c(S(N)(=O)=O)c1
A: 7.962%
B: 3.467%

structure: O=C(CC1COCCN1)NCCc1nc(Cc2ccccc2)no1 (centres undefined)
A: -11.07%
B: 2.684%

structure: Cc1cccc(NC(=O)C2CCc3ccccc3N2)c1.Cl (centres undefined)
A: -12.04%
B: 4.762%

structure: COc1ccc(CC(=O)N(C)c2cccnc2N(C)C)c(Cl)c1
A: -39.92%
B: -1.249%

structure: O=C(CSc1nnc(N2CCCC2)s1)NC(=O)Nc1ccccc1
A: -29.56%
B: 20.39%

The first 3 entries again:

{"structure": "CCN(CCCNCc1c(C)nn(C)c1N(C)C)S(C)(=O)=O", "A": 1.393, "B": -22.3}
{"structure": "Cc1cccc(CN2CCC(c3nccn3CC(N)=O)CC2)n1", "A": -28.11, "B": 4.054}
{"structure": "CC(NC(=O)NCCOc1ccc(F)c(F)c1)c1nncn1C", "stereo": "centres undefined", "A": -10.06, "B": 2.658}